The results in this text go back to paper doi:10.1101/2025.03.12.642381.

Sequences of proteins named here, by UniProt entry; tags and fusion partners are left off.
UniProt Q9NS67: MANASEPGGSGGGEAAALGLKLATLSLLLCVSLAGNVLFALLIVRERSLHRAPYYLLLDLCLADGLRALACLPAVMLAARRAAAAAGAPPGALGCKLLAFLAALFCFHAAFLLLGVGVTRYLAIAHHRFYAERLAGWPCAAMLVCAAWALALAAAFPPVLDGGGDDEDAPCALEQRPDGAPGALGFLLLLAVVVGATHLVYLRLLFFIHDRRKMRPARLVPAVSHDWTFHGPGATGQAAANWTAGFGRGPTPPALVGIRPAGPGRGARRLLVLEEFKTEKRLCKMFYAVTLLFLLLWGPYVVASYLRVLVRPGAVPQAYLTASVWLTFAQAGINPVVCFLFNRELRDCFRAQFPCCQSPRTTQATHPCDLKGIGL
UniProt P29067: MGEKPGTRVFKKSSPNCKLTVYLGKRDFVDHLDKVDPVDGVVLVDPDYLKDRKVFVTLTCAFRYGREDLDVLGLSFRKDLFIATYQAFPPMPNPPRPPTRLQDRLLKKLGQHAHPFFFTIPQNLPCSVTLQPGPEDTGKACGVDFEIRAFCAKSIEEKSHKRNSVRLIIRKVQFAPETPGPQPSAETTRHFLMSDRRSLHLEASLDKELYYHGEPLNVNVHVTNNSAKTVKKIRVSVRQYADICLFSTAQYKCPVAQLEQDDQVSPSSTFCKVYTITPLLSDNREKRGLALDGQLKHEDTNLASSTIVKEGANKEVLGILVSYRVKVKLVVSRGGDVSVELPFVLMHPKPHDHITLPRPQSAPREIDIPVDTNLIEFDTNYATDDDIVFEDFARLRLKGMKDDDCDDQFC

For the test, the target named is GPR27 fused with the C-terminal part of the firefly luciferase (human) (UniProt Q9NS67). The test can be described thus: split reporter.

No constants are given. Whether binding was seen depends on the method and setting. Binding seen in cells or lysates may run through a third protein.

Take “β-arrestin 2 fused with the N-terminal part of the firefly luciferase (from UniProt P29067 1-410)”: the binding result is given as “no binding”.
